This experiment has as its system P388 leukemia ip, CD2F1 mice, survival T/C. As to the kind of experiment: NCI In Vivo Anticancer Drug Screen. Data for tumor model P388 Leukemia (intraperitoneal) in CD2F1 (CDF1) mice. The settings on record: T/C endpoint: median survival time, higher T/C = longer survival.
Where [1] appears, read: dose: 200.0 mg/kg/injection, schedule: Q01DX005 (ip), vehicle: saline with Tween-80.
[2] abbreviates: dose: 12.5 mg/kg/injection, schedule: Q01DX009 (ip), vehicle: Klucel (hydroxypropylcellulose) (HPC).
Setting [3] is: dose: 25.0 mg/kg/injection, schedule: Q01DX009 (ip), vehicle: Klucel (hydroxypropylcellulose) (HPC).
[4] abbreviates: dose: 50.0 mg/kg/injection, schedule: Q01DX009 (ip), vehicle: Klucel (hydroxypropylcellulose) (HPC).
Setting [5] is: dose: 100.0 mg/kg/injection, schedule: Q01DX009 (ip), vehicle: Klucel (hydroxypropylcellulose) (HPC).
Where [6] appears, read: dose: 200.0 mg/kg/injection, schedule: Q01DX009 (ip), vehicle: Klucel (hydroxypropylcellulose) (HPC).
Setting [7] is: dose: 400.0 mg/kg/injection, schedule: Q04DX003 (ip), vehicle: saline with Tween-80.
Setting [8] is: dose: 200.0 mg/kg/injection, schedule: Q01DX005 (ip), vehicle: saline.
The mark [9] stands for this setting: dose: 100.0 mg/kg/injection, schedule: Q01DX009 (ip), vehicle: distilled water + Tween-80.
The mark [10] stands for this setting: dose: 200.0 mg/kg/injection, schedule: Q01DX009 (ip), vehicle: distilled water + Tween-80.

Data on 22 compounds can be found in PubChem BioAssay AID330 (DTP/NCI, 2004).

The list does not hold the whole screen: it gathers tests that were run many times, whatever their T/C, doses with no T/C, and many T/C values between a quarter and a half above the control. Other doses and runs of a compound stand elsewhere. T/C is the treated group as % of the vehicle group. Some entries give survivors of the animals treated and no T/C: the source files T/C as zero there, which appears to mark a toxic dose or a test without result, not a measured value. Some survivor counts are full or nearly so, which does not show that the dose was tolerated: survival well below the control is almost never listed, so the zero probably covers shortened survival too. Counts of survivors are from the toxicity check (mostly the fifth day) where no day follows; animals may have died later. Schedules are NCI's codes, taken here to give the interval after Q, in days (D) or hours (H), and the number of doses after X. Some entries were tested several times; the values are given in rising order. Additions like (4×) stand for listed records that agree. For survival time, the PubChem record calls one and a half times the control and up active, and a quarter to a half above the control has no call in these data; cut-offs in other NCI protocols can differ. Some T/C values carry the count of animals alive at the toxicity check (mostly the fifth day); where none is given, no animal had died by that day.

Take `COc1ccccc1N=NC(C#N)C(N)=O` (centres undefined): for the setting “dose: 100.0 mg/kg/injection, schedule: Q01DX009 (ip), vehicle: saline with Tween-80”, the survivor count was 6 of 6.
Consider `O=c1c2ccccc2n(-c2ccccc2)c2ccc(Cl)cc12`, for which, under setting [1], the survivor count is on record as 5 of 5.
For `CCC1(c2ccc(-c3ccccc3)cc2)OC(OC(=O)NC)C=CC1=O` (centres undefined), the T/C runs as follows: under setting [2], 102, 103, 115 % of control; under setting [3], 105, 111 [5 of 6 alive], 140 % of control; under setting [4], 92 % of control [5 of 6 alive]. In addition, the survivor count under setting [2] is listed as 0 of 6; the survivor count under setting [3] is reported as 0 of 6; the survivor count under setting [4] was 0 of 6, 4 of 6, 6 of 6; the survivor count under setting [5] is reported as 0 of 6; the survivor count under setting [6] is reported as 0 of 6.
Consider `CSC(=S)NN=C(c1ccccn1)c1ccccn1`, for which, for the setting “dose: 50.0 mg/kg/injection, schedule: Q01DX009 (ip), vehicle: saline with Tween-80”, the survivor count is listed as 6 of 6.
For `CCOC(=O)CN1CCC2CC1c1c([nH]c3ccccc13)C2c1cc2c(cc1OC)N(C)C1C(O)(C(=O)OC)C(OC(C)=O)C3(CC)C=CCN4CCC21C43` (centres undefined), the survivor count reads like this: (dose: 0.25 mg/kg/injection, schedule: Q01DX009 (ip), vehicle: Klucel (hydroxypropylcellulose) (HPC)) 6 of 6; (dose: 0.5 mg/kg/injection, schedule: Q01DX009 (ip), vehicle: Klucel (hydroxypropylcellulose) (HPC)) 6 of 6; (dose: 2.0 mg/kg/injection, schedule: Q01DX009 (ip), vehicle: Klucel (hydroxypropylcellulose) (HPC)) 6 of 6.
`C/C(=N\NC(=S)N1CCN(c2ccccn2)CC1)c1ccccn1`: the survivor count (dose: 50.0 mg/kg/injection, schedule: Q01DX005 (ip), vehicle: water) was 2 of 6; the survivor count (dose: 100.0 mg/kg/injection, schedule: Q01DX005 (ip), vehicle: water) was 0 of 6; the survivor count (dose: 200.0 mg/kg/injection, schedule: Q01DX005 (ip), vehicle: water) is given as 0 of 6.
`COc1cc(C2c3cc4c(cc3C3OC(=O)C2C3CO)OCO4)cc(OC)c1OC` (centres undefined): the T/C is, setting by setting: (dose: 1.0 mg/kg/injection, schedule: Q01DX009 (ip), vehicle: Klucel (hydroxypropylcellulose) (HPC)) 140 % of control; (dose: 2.5 mg/kg/injection, schedule: Q01DX009 (ip), vehicle: Klucel (hydroxypropylcellulose) (HPC)) 140 % of control; (dose: 5.5 mg/kg/injection, schedule: Q01DX009 (ip), vehicle: Klucel (hydroxypropylcellulose) (HPC)) 130 % of control; (dose: 8.0 mg/kg/injection, schedule: Q01DX009 (ip), vehicle: Klucel (hydroxypropylcellulose) (HPC)) 137 % of control; under setting [2], 127 % of control (2×); (dose: 18.7 mg/kg/injection, schedule: Q01DX009 (ip), vehicle: Klucel (hydroxypropylcellulose) (HPC)) 137 % of control. The survivor count is given as 5 of 6 under setting [3], 4 of 6 under setting [4], 1 of 6 under setting [5] and 0 of 6 under setting [6].
On to `C[n+]1cccc(C2=CCCC2)c1`, for which the survivor count was 3 of 6 (dose: 50.0 mg/kg/injection, schedule: Q04DX003 (ip), vehicle: water); 0 of 6 (dose: 100.0 mg/kg/injection, schedule: Q04DX003 (ip), vehicle: saline with Tween-80); 0 of 6 (dose: 100.0 mg/kg/injection, schedule: Q04DX003 (ip), vehicle: water); 0 of 6 (dose: 200.0 mg/kg/injection, schedule: Q04DX003 (ip), vehicle: saline with Tween-80); 0 of 6 under setting [7]; 0 of 6 (dose: 600.0 mg/kg/injection, schedule: Q04DX003 (ip), vehicle: saline with Tween-80). Also, under setting [7], the T/C was 141 % of control.
Take `Nc1ccccc1OCCCn1cc(-c2ccc(Cl)c(Cl)c2)c(N)nc1=O`: the survivor count (dose: 60.0 mg/kg/injection, schedule: Q01DX005 (ip), vehicle: Klucel (hydroxypropylcellulose) (HPC)) is given as 6 of 6; the survivor count (dose: 120.0 mg/kg/injection, schedule: Q01DX005 (ip), vehicle: Klucel (hydroxypropylcellulose) (HPC)) was 6 of 6; the survivor count (dose: 240.0 mg/kg/injection, schedule: Q01DX005 (ip), vehicle: Klucel (hydroxypropylcellulose) (HPC)) is 6 of 6.
For the compound `O=C(Cc1ccccc1)c1c[nH]c2c(O)ccc(O)c12`, where the note is “dose: 400.0 mg/kg/injection, schedule: Q04DX002 (ip), vehicle: Klucel (hydroxypropylcellulose) (HPC)”, the survivor count is listed as 0 of 6.
Take `CCOC(=O)N(CCF)N=O`: the T/C (dose: 12.5 mg/kg/injection, schedule: Q01DX001 (ip), vehicle: saline with Tween-80) was 137 % of control [5 of 6 alive]. Besides, for the setting “dose: 25.0 mg/kg/injection, schedule: Q01DX001 (ip), vehicle: saline with Tween-80”, the survivor count was 0 of 6.
Regarding `C=C1CC2(CC3CC(C2C)C3(C)C)OC1=O` (centres undefined), for the setting “dose: 200.0 mg/kg/injection, schedule: Q04DX002 (ip), vehicle: saline”, the survivor count is listed as 6 of 6.
`CC(CC(=O)O)C(C(=O)O)C(=O)O` (centres undefined): the survivor count under setting [8] is reported as 5 of 5.
On the same count and under the same terms, to `COc1ccc2c3c([nH]c2c1)C(C)=NCC3` belongs 0 of 6.
As to `CCOc1c(N=Nc2ccc(O)cc2)c(C)nn1C(N)=S`, the survivor count (dose: 60.0 mg/kg/injection, schedule: Q01DX005 (ip), vehicle: Klucel + Tween-80) is on record as 0 of 6; the survivor count (dose: 120.0 mg/kg/injection, schedule: Q01DX005 (ip), vehicle: Klucel + Tween-80) was 0 of 6; the survivor count (dose: 240.0 mg/kg/injection, schedule: Q01DX005 (ip), vehicle: Klucel + Tween-80) is 0 of 6.
For the compound `CCN=NNc1ccc(C(C)=O)cc1`, under setting [9], the T/C is 138 % of control. Further, the survivor count under setting [10] is 2 of 5 (2×).
`c1ccc([N-][n+]2ccc3ccccc3c2)cc1`: the survivor count (dose: 50.0 mg/kg/injection, schedule: Q01DX009 (ip), vehicle: saline) was 0 of 6; the survivor count (dose: 100.0 mg/kg/injection, schedule: Q01DX009 (ip), vehicle: saline) is 0 of 6; the survivor count (dose: 200.0 mg/kg/injection, schedule: Q01DX009 (ip), vehicle: saline) is listed as 0 of 6.
For `C1CC2CC3CCCCN3COC2C1` (centres undefined), the survivor count (dose: 400.0 mg/kg/injection, schedule: Q04DX003 (ip), vehicle: saline) is reported as 3 of 6.
For `COC(=O)C(CSC(c1ccccc1)(c1ccccc1)c1ccccc1)NC(=O)C(CC(N)=O)NC(=O)OCc1ccccc1` (centres undefined), the T/C under setting [9] is 125 and 126 % of control. Besides, the survivor count under setting [10] is 6 of 6 and the survivor count (dose: 400.0 mg/kg/injection, schedule: Q01DX009 (ip), vehicle: distilled water + Tween-80) is given as 3 of 6.
On to `CC(=O)C1C(=O)C(=O)N(c2ccccc2[N+](=O)[O-])C1=O` (centres undefined), for which the survivor count is, setting by setting: (dose: 100.0 mg/kg/injection, schedule: Q01DX005 (ip), vehicle: saline with Tween-80) 3 of 6; under setting [1], 0 of 6.
Regarding `CCC1(O)C(=O)OCc2c1cc1n(c2=O)Cc2cc3ccccc3nc2-1` (centres undefined), the T/C (dose: 1.0 mg/kg/injection, schedule: Q04DX003 (ip), vehicle: other, evaluated on day 40) was 138 % of control and the T/C (dose: 1.0 mg/kg/injection, schedule: Q04DX003 (ip), vehicle: other, evaluated on day 45) is 140 % of control. Also, the survivor count (dose: 16.0 mg/kg/injection, schedule: Q04DX003 (ip), vehicle: other) was 2 of 6.
Consider `CSc1ncnc2c1ncn2C1OC(CO)C(O)C1O` (centres undefined), for which the T/C is, setting by setting: (dose: 32.0 mg/kg/injection, schedule: Q01DX010 (ip), vehicle: saline) 127 and 129 % of control; (dose: 123.0 mg/kg/injection, schedule: Q01DX001 (ip), vehicle: saline) 125 and 141 % of control [8 of 9 alive]; (dose: 185.0 mg/kg/injection, schedule: Q01DX001 (ip), vehicle: saline) 134 % of control [8 of 9 alive]. Besides, the survivor count (dose: 275.0 mg/kg/injection, schedule: Q01DX001 (ip), vehicle: saline) was 2 of 4.
